# PubChem BioAssay AID1224826 | NIAID | 2016
# Test: 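Regulators of Tlr4 signalling leading to Tnf-alpha expression in macrophages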 (primary screen)
# System: RAW264.7 G9 macrophages from mouse bearing reporters for p65 (GFP) and the Tnf promoter (mCherry)
# Reagents: siRNA pool against mouse genes, 100 nM
# Timing: 16 h of LPS stimulation, after 2 days of siRNA transfection
# Challenge: bacterial lipopolysaccharide (Salmonella minnesota R595), 10 ng/ml
# Detection: 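Imaged Tnf reporter mCherry in nuclei, minus background, normalised per plate to the median and expressed as robust z-scores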
# Reading the numbers: Tnf reporter robust z-score: higher = stronger Tnf promoter reporter signal after LPS; Tnf reporter intensity: higher = stronger Tnf promoter reporter signal
# Call rule: 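a well counts as active at a score of -1.3 or below (Tlr4 knock-down control median) or above 3 (raised signal); controls and wells holding fewer than 50 cells are excluded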
# Meaning of the calls: active = Tnf reporter clearly lowered or raised; inactive = no clear change in Tnf reporter
# The whole screen tested about 17,000 reagents; this is a part drawn at random. About 1,110 of all reagents (6.6%) were called active. 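Active means lowered or raised reporter signal; replicate intensities are raw and not normalised per plate.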 Reagents against one gene are numbered here. Some reagents were tested in more than one well and are listed for each.
Target gene,reagent,Tnf reporter robust z-score,fewer than 50 cells in well,"Tnf reporter intensity, replicate 1","Tnf reporter intensity, replicate 2",outcome
Prss44,1,0.86,enough cells in well,306,95.4,inactive
Traip,1,-0.14,enough cells in well,198,244,inactive
Mrgprb4,1,1.3,enough cells in well,208,218,inactive
Fbxw16,1,-0.89,enough cells in well,134,97.9,inactive
Nr2f2,1,-0.07,enough cells in well,243,61.4,inactive
Nr2f2,2,-1.12,enough cells in well,150,114,inactive
Gorasp1,1,0.78,enough cells in well,293,218,inactive
Vmn1r62,1,0.03,enough cells in well,120,78.9,inactive
Vmn1r62,2,-0.74,enough cells in well,97,60.9,inactive
Scgb3a1,1,-0.7,enough cells in well,99.5,96,inactive
Slc35e4,1,,fewer than 50 cells per well; well left out of calls,111,141,inactive
Mup3,1,-2.2,enough cells in well,62.4,35.6,active
Syce2,1,-0.36,enough cells in well,214,62.4,inactive
Stk36,1,-0.56,enough cells in well,167,121,inactive
Stk36,1,,fewer than 50 cells per well; well left out of calls,149,44.3,inactive
H2-Q7,1,0.69,enough cells in well,276,248,inactive
Atg4a,1,0.87,enough cells in well,263,173,inactive
Trpm7,1,0.1,enough cells in well,184,134,inactive

Taken from above:
Scgb3a1, Tnf reporter robust z-score = -0.7
Vmn1r62 #2, fewer than 50 cells in well: enough cells in well
Value of Mrgprb4 in “fewer than 50 cells in well”: enough cells in well

Further records follow.
Target gene,reagent,Tnf reporter robust z-score,fewer than 50 cells in well,"Tnf reporter intensity, replicate 1","Tnf reporter intensity, replicate 2",outcome
Larp7,1,3.39,enough cells in well,406,343,active
Tyrp1,1,0.98,enough cells in well,280,335,inactive
Adgra3,1,-0.04,enough cells in well,161,380,inactive
Sdhc,1,-0.27,enough cells in well,245,203,inactive
Fbln1,1,0.16,enough cells in well,276,204,inactive
Ppfibp2,1,-0.36,enough cells in well,114,114,inactive
Or14c39,1,-0.9,enough cells in well,131,84.7,inactive
Drc11l,1,,fewer than 50 cells per well; well left out of calls,185,60.2,inactive
Gm56926,1,-0.38,enough cells in well,179,182,inactive
Trpc3,1,0.97,enough cells in well,288,325,inactive
Atp6ap1,1,-1.08,enough cells in well,105,108,inactive
Eif3g,1,-1.93,enough cells in well,74.9,86.1,active
Serinc2,1,,fewer than 50 cells per well; well left out of calls,103,69.5,inactive
Rab2a,1,-0.37,enough cells in well,285,169,inactive
Mark1,1,0.27,enough cells in well,209,180,inactive
Aldoa,1,-0.04,enough cells in well,199,129,inactive
Lamp1,1,0.64,enough cells in well,222,168,inactive
Parm1,1,-0.57,enough cells in well,159,139,inactive
Sult5a1,1,,fewer than 50 cells per well; well left out of calls,58.4,69.3,inactive
Or1ak2,1,0.35,enough cells in well,188,145,inactive
Tm6sf1,1,-0.57,enough cells in well,73.2,94.3,inactive
Arel1,1,2.06,enough cells in well,348,157,inactive
